The values that follow come from PMC6715661, “Cardiac MLC2 kinase is localized to the Z-disc and interacts with α-actinin2” (Scientific Reports, 2019).

No constants are given. Whether binding was seen depends on the method and setting. In cells and extracts the contact can be indirect. Binding calls can cover weak binding; strength is not graded here. Sequences can lack the tags named with a protein.

The assay addresses T1, HA-cMLCK, full length, expressed in HEK293 cells (mouse) (UniProt Q3UIZ8).
T1 sequence: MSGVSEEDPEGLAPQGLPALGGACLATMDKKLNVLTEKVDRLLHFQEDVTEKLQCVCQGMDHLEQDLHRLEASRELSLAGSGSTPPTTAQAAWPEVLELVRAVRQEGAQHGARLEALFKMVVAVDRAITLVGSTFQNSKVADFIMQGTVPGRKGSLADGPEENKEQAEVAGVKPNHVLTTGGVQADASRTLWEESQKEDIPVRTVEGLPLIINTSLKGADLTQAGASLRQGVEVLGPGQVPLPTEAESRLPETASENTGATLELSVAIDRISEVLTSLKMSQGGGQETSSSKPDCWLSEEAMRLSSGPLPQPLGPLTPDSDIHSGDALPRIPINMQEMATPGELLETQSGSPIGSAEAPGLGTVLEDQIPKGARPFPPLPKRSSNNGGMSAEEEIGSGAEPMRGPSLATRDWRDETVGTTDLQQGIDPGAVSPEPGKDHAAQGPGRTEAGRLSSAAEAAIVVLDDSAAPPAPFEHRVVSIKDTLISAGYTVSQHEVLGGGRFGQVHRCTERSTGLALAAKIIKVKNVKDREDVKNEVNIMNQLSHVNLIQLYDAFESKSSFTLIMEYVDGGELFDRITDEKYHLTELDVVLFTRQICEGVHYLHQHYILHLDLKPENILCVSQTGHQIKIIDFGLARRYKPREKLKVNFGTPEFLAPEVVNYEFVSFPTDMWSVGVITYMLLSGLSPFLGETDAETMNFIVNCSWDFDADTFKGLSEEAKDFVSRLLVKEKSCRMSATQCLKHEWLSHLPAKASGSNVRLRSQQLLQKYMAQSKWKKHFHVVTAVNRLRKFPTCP
Nature of the assay: co-IP; HA-tagged cMLCK forms and Myc-tagged α-actinin2 forms mixed in vitro; how the complex was isolated and detected is not told for this experiment.

With “Myc-tagged N-terminus deletion mutant of α-actinin2 with the ABS2 domain (mouse) (domain or fragment)”, the binding entry is listed as “binds”.
